Our source for the z-score values is PubChem BioAssay AID1347423 (Functional Genomics Laboratory (NCATS/FGL), 2020).

Out of some 52,000 sequences screened, about 210 (0.4%) were called active.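 The calls were made as follows: active = gene whose silencing raises cell survival under the drug, median off-target-corrected z-score across its silencing RNAs 2 or more; inactive = the rest.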 Some of the results follow.

A short description of the assay: Resistance to Poly (ADP-Ribose) Polymerase inhibitor: Gene Identification via Genome-wide siRNA Screen. Particulars: mouse BRCA2 R2336H ES cells, olaparib, CellTiter-Glo viability; active compounds read high. The gist of the method:
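Mouse BRCA2 R2336H ES cells were reverse-transfected with siRNA (20 nM final), treated at 48 h with 500 nM olaparib, and read by CellTiter-Glo after 72 h. Scores: MAD-based z per siRNA, median per gene, seed off-target correction.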
Background: Cellular ATP, detected with luciferase, serves as a proxy for viable cell number.
Regarding GGAUGUUGUAGCAGCUGCGTT against Olfr353, the z-score was inactive: -0.284.
The value for GGGAAUGUAGACAUGGAAUTT against Tas1r3 was inactive: 0.84; that for GGAGAGAGUUGUUCAGUUATT against Olfr619 was inactive: -0.775.
Next, GGAUAGACUUGAUUCUUGGTT against Emid1: inactive: -0.665; GGGAAAGGGUUUUUUAUUCTT against Slc1a1: inactive: -0.097; GGGAGAGCUGGCUAAAUGATT against Spnb4: inactive: -2.14.
Next, CGAGCAAGCUUCUACAUACTT against AI182371: inactive: -2.79.
Turning to GGUAAUUGAGUUUGACGAUTT against Ptprf, the z-score is inactive: 0.649.
Next, GGAUGUUGUAGAUGCUUUGTT against Cte1: inactive: 2.78; CCUCUAGACCGAAUGAAAATT against Zfyve16: inactive: 0.664.
Next, GCUUCGCUUUUAGGUAUAUTT against Rpl27: inactive: -2.73.
The value for GGCCCUCACAAUGAAUAUGTT against Efs was inactive: -0.583; that for “GGGCAGGAAAAAAAAUUCATT against C330002D13Rik” was inactive: -0.0763.
Consider GGGUGUCGUUCUGGUUUGUTT against Tmem27, for which the z-score was inactive: -1.45.
Next, GGUGAAGUCUCCAAAGAGUTT against Ms4a4d: inactive: 0.403; GCCUCUCUGGUGAACUUAGTT against Ccar1: inactive: 0.393.
The value for GGAAACAGCCCACUGGAAATT against Ndufs2 was inactive: 0.581; that for GGCACUUACUGUGAAAUUGTT against Smbp was inactive: -1.37; that for GCGAGAAGGAUUCACCUUCTT against Apg7l was inactive: 1.12.
The value for “GGCUUCUUCACUGAAAUUCTT against 1700074P13Rik” was inactive: 0.277.
Regarding GGACAUUUUUCAUUUGUGATT against Zfhx4, the z-score is inactive: 0.499.
With GGAUUCUGAAAUCAGUGCUTT against Capn8, the z-score was inactive: 0.244.
Turning to GGAAACCUGUGUAUGAUUGTT against Olfr1022, the z-score is inactive: -0.373.
The value for GCCCGAAUUUGAUAAACAGTT against BC049816 was inactive: 2.41; that for GGAAGAAUCAAAAACCUUCTT against Ddit3 was inactive: 0.75; that for GGACGUAACAAAAUGUUCUTT against P2ry12 was inactive: -0.253.
The value for GGGACUUGAGUAGCUGACUTT against Sgta was inactive: 0.0123; that for GGAGAAGAGCAUGCCUUUCTT against Lgals6 was inactive: -0.647.
The value for “CGGUAUUAGUAGCAAUGGUTT against 2310005G13Rik” was inactive: -0.34; that for CCGUAAGAAGGAAAACGCATT against Kcnd1 was inactive: 1; that for CCUUCUGGUGCUUUUAGAGTT against Tlm was inactive: 0.431.
Turning to GGAGCUUCUUUUCCCUCUATT against Gcgr, the z-score was inactive: -0.142.
Next, GGCGAUAACUGUCGAUACUTT against Mkrn1: inactive: 0.107; GGAAUCAACUUGGUGGCUCTT against Rxrg: inactive: 0.659.
Next, GGACAGUGCUCGAAACCGATT against BC004728: inactive: 3.8.
As to CCUUUUUCGGCUUGUAUAATT against Tnfsf6, the z-score is inactive: -0.769.
As for “GGAGCUCGUGUAAAUGCCATT against A130096K20”, the z-score was inactive: 0.659.
The value for “GCACAAGACUUUAUAACCATT against 1810012H11Rik” was inactive: -1.41; that for GGCUAAAGAACAUGAUACCTT against Sema4a was inactive: 0.793.
The value for CGGUUCAUCUGGGAGUAUGTT against Rerg was inactive: -1.67.
The value for GGGUUUUGAAACAUGCAGGTT against Cd44 was inactive: 0.793.
In the case of CCGGAAGAGCUUGCUUUAUTT against MGC59240, the z-score is inactive: -1.39.
Next, CGACAAGGAAAGUUGAUGUTT against Hdac3: inactive: 1.33; GCAGUUGCUAUGUUCUAUATT against Olfr1257: inactive: 2.13; GCGAGCUGUAAAUGGAUCUTT against Gpr30: inactive: -0.641.
The value for GGAUGACAAAAAUUUCAAGTT against St14 was inactive: 0.5; that for GCAACACGAAUAUCACAGGTT against Hadha was inactive: 0.719.
Next, “GCACCGAAUGCACAAUCUCTT against D4Ertd196e”: inactive: 0.962.
On to GCAAGGGCAAGUCCACAAATT against Gjb3, for which the z-score is inactive: -1.07.
Next, CCCACUUGCUGAAAAUUGUTT against Ankib1: inactive: -0.289; GGAUUGCUCAGUAUUCUACTT against V1rb2: inactive: -0.606.
Next, “GCUAUACACUUGGCCCAUUTT against 6330577E15Rik”: inactive: 0.201.
As for “GGAUUUAAGUGCCCGGUAUTT against D6Ertd365e”, the z-score was inactive: 0.776.
In the case of “GGAUGAUGAGUUUUUCCAUTT against 9030407H20Rik”, the z-score is inactive: 0.0546.
Next, GCAACACAAGUCAUGAAGUTT against Gabpb2: inactive: 0.0422; CCUCUUAAACAUGUCCUAGTT against Atp6v0a2: inactive: 0.805; GCCAACAAUUUGAAGAACGTT against Spats1: inactive: -0.382.
On to GCUUUACGCAUCCUACGUGTT against Ftmt, for which the z-score is inactive: 1.08.
The value for GCGGAAAGGCCAAACGAUUTT against Inhbb was inactive: -0.766; that for GGAAAGAUUCAAAGAACCUTT against Rpia was inactive: -1.71.
The value for GGGUCAAACGACUUAGAAATT against Col5a2 was inactive: 0.783; that for CCUUCUGUAUAGGUUCUGGTT against Slc41a3 was inactive: 1.17; that for AUGGAAAAAGUGCACAAUCTT against Olfr1061 was inactive: 0.0751.
For the sequence GGACAAUGAGCUCUCCUUCTT against Abi3, the z-score was inactive: 0.0643.
The value for GGACAGACAGGUCUAGUUATT against Gm1100 was inactive: 0.0667; that for GGGCUGACUAUUAUUUCAGTT against Cysltr2 was inactive: -0.497; that for GGCAGGAUAUGUAUUCUGATT against Cecr6 was inactive: -0.0802.
Next, GGAUAUCUUCAUAUUGGUGTT against AU018778: inactive: -0.334; ACUUCCUGACUGAGAGACATT against Olfr485: inactive: 1.76.
The value for GCCGUGGAUGUCAUUUACUTT against AV216087 was inactive: 0.473; that for “GGAGGAUAGAUUUAUGUAUTT against 6030446N20Rik” was inactive: -0.62; that for “GGUUAUCCCAGCUACCACATT against 9630013D21Rik” was inactive: -1.01.
As to CCUCCUCUAUACAAACAUGTT against Gpr109b, the z-score is inactive: 0.459.
Take CCUUGCAUUACUUCUAAAUTT against Fmr2: the z-score was inactive: 1.01.
For GGGCUGCUAUUUUGAUGGUTT against Chrd, the z-score is inactive: -0.566.
On to “GGGCAUGUACUAUGAGCCATT against 2310051M13Rik”, for which the z-score is inactive: -1.44.
The value for CGAAUUCUCUACCAGUUUUTT against Psd4 was inactive: 0.497; that for CCAUGUUAAUCCUGACAGCTT against Phf16 was inactive: 0.772.
Next, GGAAGAAAAAAAAUCUCCATT against Frmd3: inactive: -0.809.
Next, AAAAGUUAAUCAUCCGGCATT against Olfr732: inactive: -0.232; “GGUCAUCCUCAAGAUGAAGTT against 4933405K07Rik”: inactive: 0.31; GGAGGUGGAUCAUAUGACUTT against BC023296: inactive: 1.01.
In the case of “GGCACUGAGACUUGAUACATT against A230091H23”, the z-score was inactive: -1.1.
The value for GCUAGAAGCUUUCUAUUCUTT against Hsp105 was inactive: 2.73; that for GGAUGCAGAUGUACAACUCTT against Slc25a28 was inactive: -0.452.
The value for UACCUUGGGUUCUAAGGCATT against BC023754 was inactive: 1.09.
Next, “GCUUGUGUCACCUACGGAATT against 1700007D05Rik”: inactive: 0.142.
Take GGAUUUCAAAACCGACUUGTT against H3f3b: the z-score was inactive: -1.46.
The value for CCUCGUAAGACUGUAAAAGTT against Neurog2 was inactive: -0.0869.
Next, GCAGAUCACCUUUUGUUUATT against Gdap2: inactive: -0.803; CCCUCUCCUCAGAUAUACUTT against Grasp: inactive: 0.375; GGAGCAAGACAACAAAGAUTT against Cd97: inactive: -0.294.
For the sequence CCCAAUUUUUAGUUGCUAATT against Rab2b, the z-score is inactive: -0.321.
Regarding GGAAGUGAAAGGUAAAUAGTT against Dia1, the z-score is inactive: 0.317.
Next, GCCGUGUUUACAGAAUGUUTT against Nkx2-2: inactive: -0.536; GGGAUUCUACUGUGUGUGATT against Gpr82: inactive: -0.452; CGAUUUCCCAAGUUAUUACTT against Nxf1: inactive: -2.99.
Next, GGACCAACUACACACUACGTT against Grik5: inactive: 1.13; GGGAUGAACUCAACUGGAATT against Lrpap1: inactive: 0.843; GGCAAGGCUAACUGACCUGTT against Cxcl2: inactive: 0.494.
GGAUAAGAGUGAUGAAGCCTT against Dgcr2: the z-score was inactive: 0.133.
Next, CCUUGACUUUAAUUUGAAGTT against Bpil2: inactive: -0.0935; GGAACAAAUGCCACUAACCTT against Pde5a: inactive: 1.42.
Next, GGACACAGAUUUCACUAUATT against Arfrp1: inactive: -0.5.
Next, GAUUUUCUGUGUCCAUCAATT against Olfr726: inactive: -0.601.
